According to US20120149780A1, “Method of Use of Vitamin K as Energy Enhancer in Diverse Disease States” (priority 2009, published 2012):
At least one compound was matched to its structure with a doubt left.

Test: Blood pressure in individual subjects taking vitamin K2-7 (case reports)
Assay type: in vivo, human
Settings: Example 03: person, 200 μg daily for about 6 months, off Telmisartan for 1 month; earlier 136-134/90-88
Procedure: Person, with hypercholesterolemia (Lipid Profile; 200 mg—Total cholesterol) for which they are taking Atorvastatin 5 mg one per day and 75 mg of Aspirin one per/day since last five years. Underwent angioplasty. They were also having blood pressure which ranges from 136-134/90-88 mmHg. They were taking Telmisartan 40 mg/day from last 4 years for hypertension. Then about 6 months ago they started taking vitamin K2-7 in daily dose of 200 μg. Currently they have stopped taking anti-hypertensive medication from last 1 month. Over a period of 1 and ½ months it is observed that their blood pressure has dropped down to 118-114/78-84 mmHg. Now they are off any anti-hypertensive medicine and continues with vitamin K2-7 only.
Person was having hypertension (160/114 mmHg) but was not on any medication. They complained of fatigue and low energy level. They were put on 3 capsules per day of 100 μg of vitamin K2-7 for 1 month and then on 2 capsule per day of 350 μg of vitamin K2-7 for the next 2 months under close observation by medical doctor. […] They continued the medicine for next couple of month with same dose i.e. 2 capsules per day of 350 μg of vitamin K2-7. […] Then they were taken off from the treatment for 15 days. Blood pressure shot up to 146/108 mmHg, They were again put on vitamin K2-7, 350 μg, 2 capsules per day and their blood pressure came down to 136/100 mmHg. […]

For `CC(C)=CCC/C(C)=C/CC/C(C)=C/CC/C(C)=C/CC/C(C)=C/CC/C(C)=C/CC/C(C)=C/CC1=C(C)C(=O)c2ccccc2C1=O` [vitamin K2-7], the blood pressure was 118-114/78-84.
